Experimental data published in PubChem BioAssay AID652054 (National Center for Advancing Translational Sciences (NCATS), 2013).
In all, about 360,000 compounds went through this assay and about 9,100 (2.5%) were called active. This list was built around the results that the source calls inconclusive (neither active nor inactive); the mix of calls is not that of the screen. No stated cut-off is given here; in the data, active means max response below about -50%; inconclusive means no clear call, values can overlap the other calls; inactive means above that.

Chains of the proteins cited; added tags and fusions are not shown.
UniProt P35462, whole entry, looked up: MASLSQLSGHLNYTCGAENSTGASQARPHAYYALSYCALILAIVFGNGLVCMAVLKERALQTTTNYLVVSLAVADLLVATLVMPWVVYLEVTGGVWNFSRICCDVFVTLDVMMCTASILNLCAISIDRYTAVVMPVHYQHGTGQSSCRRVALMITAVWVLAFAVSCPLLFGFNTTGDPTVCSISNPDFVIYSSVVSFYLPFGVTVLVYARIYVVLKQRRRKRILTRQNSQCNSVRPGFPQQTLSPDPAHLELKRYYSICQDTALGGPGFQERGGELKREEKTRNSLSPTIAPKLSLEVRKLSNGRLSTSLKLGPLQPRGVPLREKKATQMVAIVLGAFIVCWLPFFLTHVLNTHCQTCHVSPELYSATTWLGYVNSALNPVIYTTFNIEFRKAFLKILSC

Biological target: D(3) dopamine receptor (Homo sapiens) (UniProt P35462)
Assay: qHTS of D3 Dopamine Receptor Antagonist: qHTS
Conditions: D3R cells, DiscoveRx beta-arrestin luminescence, antagonist mode; hits give low values
Procedure, shortened: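 Cells expressing the human receptor were seeded at 1500 cells/well, incubated overnight at 37 degrees C in 5% CO2, then exposed to library compounds with dopamine controls for 90 minutes at 37 degrees C before luminescent detection.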
On the % scale 0 is the no-effect control and ±100 the full control effect.

Max response, negative = inhibition, inactive:
CCN(CC(=O)Nc1ccccc1C(F)(F)F)C(=O)CCc1c(C)[nH]c(=O)c(C#N)c1C -0.773%, COc1ccc(NS(=O)(=O)c2cc(NC(=O)c3ccc(=O)[nH]c3)ccc2C)cc1 -9.91%, CCOc1ccc(C(=O)CCN2CCCCC2)cc1 0.473%, CCOc1ccc(OCc2cccc(C(=O)N/N=C/c3cccnc3)c2)cc1 21.8%, COc1ccc(NC(=O)CN2CCC(C(N)=O)CC2)cc1 -4.97%, COc1ccc(C(C)NC(=O)C2CCN(CCCc3ccccc3)CC2)cc1OC (stereo unspecified) -19.3%

Max response, negative = inhibition, inconclusive:
COc1ccc(-c2cc(C#N)nc(NN)n2)cc1 -34.1%, COc1cccc(CNC(=O)CCNS(=O)(=O)c2ccc(Br)s2)c1 -48.7%, COc1cccc(-c2ccc3c(c2)N(Cc2ccccc2OC)C(=O)C(C)S3)c1 (stereo unspecified) -33.2%, Cc1oc(-c2ccccc2)cc1C(=O)Nc1ccc(N(C)C)cc1 -32.6%, CN(CC(=O)Nc1ccc(OC(F)(F)F)cc1)C(=O)/C=C/c1ccco1 -36.4%, S=C1NCCc2ccccc2C1c1ccccc1 (stereo unspecified) -39.1%, c1ccc(COc2cccc(CN3CCCCC3)c2)cc1 -40.3%, Nc1nc(-c2ccc3c(c2)NC(=O)CO3)cs1 -35.4%, Clc1ccc(CN2CCN(c3ccccc3)CC2)cn1 -36.8%, CCCCCn1c(N2CCC(C(N)=O)CC2)nc2c1c(=O)[nH]c(=O)n2C -43.5%, N#Cc1c(N)n(CCCN2CCOCC2)c2nc3ccccc3nc12 -35.1%, CCCCCC(O)(CCCCC)C(=O)NNc1ccccc1 -46.6%, COc1ccc(NC(=O)c2oc3ccccc3c2CSC)cn1 -44%, Cc1ccc(CSCCNC(=O)c2ccc(C)cc2)cc1 -32%, Cc1cccc(Cn2nc(C)c(NC(=O)c3ccc(F)cc3)c2C)c1 -46.9%, C=CCC[C@H](Cc1ccc(F)cc1)C(=O)OC[C@H](C)NC(=O)[C@@H](CC=C)CC(=O)N[C@H](CO)Cc1ccccc1 -30.5%

Max response, negative = inhibition, active:
CCNS(=O)(=O)c1ccc(CCC(=O)N2CCc3ccccc3C2)cc1 -71.6%, CN(C)c1nc(C=C(C#N)C#N)c(Cl)n1-c1ccc(F)cc1 -64.3%, CC(O)(c1cccc(F)c1)c1nc(-c2cccc(C(F)(F)F)c2)cs1 (stereo unspecified) -53.1%, CC(Oc1ccc(Br)cc1)C(=O)N(Cc1ccccc1)c1c(N)n(Cc2ccccc2)c(=O)[nH]c1=O (stereo unspecified) -60.9%
